The results in this text go back to paper PMC6697747.

By UniProt entry, the sequences of proteins in these tests, tags left out. Where a name states a change or a piece, a line headed by the entry shows the natural chain unless it says otherwise.
UniProt P05556: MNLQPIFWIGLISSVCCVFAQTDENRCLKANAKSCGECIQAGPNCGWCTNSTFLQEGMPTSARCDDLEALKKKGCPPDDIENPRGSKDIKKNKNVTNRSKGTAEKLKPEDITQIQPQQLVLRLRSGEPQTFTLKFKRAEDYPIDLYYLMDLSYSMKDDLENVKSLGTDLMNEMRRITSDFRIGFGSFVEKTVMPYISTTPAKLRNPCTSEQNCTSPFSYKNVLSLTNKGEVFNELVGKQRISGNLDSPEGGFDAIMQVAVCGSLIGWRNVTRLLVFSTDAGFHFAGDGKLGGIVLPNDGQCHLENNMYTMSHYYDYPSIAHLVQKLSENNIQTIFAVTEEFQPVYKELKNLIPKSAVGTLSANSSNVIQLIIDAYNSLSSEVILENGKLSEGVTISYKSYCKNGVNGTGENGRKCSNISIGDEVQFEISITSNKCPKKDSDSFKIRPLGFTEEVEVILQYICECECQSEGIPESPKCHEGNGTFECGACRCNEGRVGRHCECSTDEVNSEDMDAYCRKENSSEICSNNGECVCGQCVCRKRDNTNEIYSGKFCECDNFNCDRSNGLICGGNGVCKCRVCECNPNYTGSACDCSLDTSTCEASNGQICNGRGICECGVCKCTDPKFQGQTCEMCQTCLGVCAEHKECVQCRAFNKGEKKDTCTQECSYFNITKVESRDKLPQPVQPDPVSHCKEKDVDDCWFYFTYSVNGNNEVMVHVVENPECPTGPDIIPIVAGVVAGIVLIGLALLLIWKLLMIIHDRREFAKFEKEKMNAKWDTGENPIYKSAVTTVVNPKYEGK

The target in this test is Neuropilin-1 wild type (NRP1-WT) (human) (UniProt O14786). The experiment in a line: co-IP; HT29 cells with stable expression of NRP1-WT, NRP1-ΔE4 or NRP1-ΔE5 lysed in RIPA buffer; 500 µg lysate protein immunoprecipitated with 2 µg NRP1 antibody (IgG as control) overnight, protein G sepharose 3 h at 4 °C; western blot, densitometry.

No constants are given. Whether binding was seen depends on the method and setting. Binding seen in cells or lysates may run through a third protein. Some binding calls cover weakened binding; strength is not graded here.

On to “β1-integrin (from UniProt P05556 21-798) (receptor)”, for which the binding entry is “binds”.
